Data as given in patent publication US8338422B2, “Indolin-2-ones and aza-indolin-2-ones” (Janssen Pharmaceutica NV, priority 2007, dated 2012).

Amino acid sequences for entries named in this document (tags omitted).
UniProt O00444, whole entry: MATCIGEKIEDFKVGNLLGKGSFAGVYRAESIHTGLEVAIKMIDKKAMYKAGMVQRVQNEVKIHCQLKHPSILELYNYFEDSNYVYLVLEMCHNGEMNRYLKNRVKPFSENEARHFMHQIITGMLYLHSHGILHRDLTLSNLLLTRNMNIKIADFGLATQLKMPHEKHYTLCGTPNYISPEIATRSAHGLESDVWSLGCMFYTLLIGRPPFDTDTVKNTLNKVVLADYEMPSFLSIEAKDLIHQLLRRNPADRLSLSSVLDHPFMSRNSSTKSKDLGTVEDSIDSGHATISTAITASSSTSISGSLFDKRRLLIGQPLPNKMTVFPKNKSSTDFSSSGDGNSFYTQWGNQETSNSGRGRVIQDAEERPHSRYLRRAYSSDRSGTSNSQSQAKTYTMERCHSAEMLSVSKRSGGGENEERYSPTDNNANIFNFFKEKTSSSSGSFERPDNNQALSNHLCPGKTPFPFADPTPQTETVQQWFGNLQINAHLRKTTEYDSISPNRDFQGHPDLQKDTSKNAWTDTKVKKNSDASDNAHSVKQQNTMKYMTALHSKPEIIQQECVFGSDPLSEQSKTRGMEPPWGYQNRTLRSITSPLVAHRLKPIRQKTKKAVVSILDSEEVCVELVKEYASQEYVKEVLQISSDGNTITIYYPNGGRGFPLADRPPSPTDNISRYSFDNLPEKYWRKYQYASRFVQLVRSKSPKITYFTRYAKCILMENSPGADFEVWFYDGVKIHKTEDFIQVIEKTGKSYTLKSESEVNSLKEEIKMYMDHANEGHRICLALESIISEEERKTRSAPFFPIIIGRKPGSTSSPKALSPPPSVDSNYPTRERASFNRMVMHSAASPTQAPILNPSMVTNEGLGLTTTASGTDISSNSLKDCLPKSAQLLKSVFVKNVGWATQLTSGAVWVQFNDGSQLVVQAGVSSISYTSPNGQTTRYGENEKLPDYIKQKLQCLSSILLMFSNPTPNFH
UniProt P49841, whole entry: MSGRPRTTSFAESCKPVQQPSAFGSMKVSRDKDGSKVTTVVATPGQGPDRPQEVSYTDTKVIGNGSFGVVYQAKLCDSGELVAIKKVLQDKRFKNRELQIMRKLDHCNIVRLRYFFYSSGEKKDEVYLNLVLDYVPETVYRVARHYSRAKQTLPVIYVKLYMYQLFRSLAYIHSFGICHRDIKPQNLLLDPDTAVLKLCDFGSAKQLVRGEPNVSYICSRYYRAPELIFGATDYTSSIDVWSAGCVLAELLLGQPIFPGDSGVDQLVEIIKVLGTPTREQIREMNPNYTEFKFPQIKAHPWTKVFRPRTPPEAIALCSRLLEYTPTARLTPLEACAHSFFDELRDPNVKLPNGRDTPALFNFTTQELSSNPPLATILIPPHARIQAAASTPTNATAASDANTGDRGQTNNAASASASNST

Legend:
PLK4 (h) = PLK4 (h) (Homo sapiens, UniProt O00444); test: PLK-4 human kinase assay (SPA)
Protocol: (§1) The in vitro inhibition of a panel of kinases was assessed using either the scintillation proximity assay (SPA) as described by Cook, N. D. et al., Advances in Experimental Medicine and Biology (1991), 36; p. 525-528; or the Fluorescence Resonance Energy Transfer (FRET) technology as described by Rodems, S. M. et al., Assay Drug Develop. Technol. (2002), 1; p. 9-19.
(§2) In the SPA technology the activity of the kinase of interest is measured using an appropriate biotinylated substrate that is incubated with the aforementioned kinase protein in the presence of (^33P) radiolabeled ATP. (^33P) Phosporylation of the substrate is subsequently measured through binding of the phosphorylated substrate to streptavidine coated beads that are based on the scintillant poly(vinyl toluene) (PVT-Beads). The scintillation intensity is detected by imaging on Leadseeker.
(§3) All kinases are pre-diluted to a 10× working concentration prior to addition into the assay. The composition of the dilution buffer for each kinase is detailed below.
In a final reaction volume of 30 μl PLK4 (h) (19 μg/ml) is incubated with 50 mM Hepes pH 8.0, 10 mM MgCl2, 50 mM NaCl, 1 mM NaF, 1 mM DTT, 10 μM of peptide Biotin-RPRGQRDSSYYWE-OH, 1 μM ATP and 2 nM [γ-^33P-ATP] (6.0 μCi/ml). […] The plate is centriguged and read for Scintillation imaging on Leadseeker.

GSK3β (h) = GSK3β (h) (Homo sapiens, UniProt P49841); test: GSK-3β human kinase assay (SPA)
Protocol: as §1, §2, §3
In a final reaction volume of 30 μl, GSK3β (h) (1 μg/ml) is incubated with 25 mM Tris pH 7.4, 10 mM MgCl2, 1 mM DTT, 1 μM peptide Biotin-KRREILSRRPSYR-OH, 1 μM ATP and 2 nM [γ-^33P-ATP] (6.0 μCi/ml). […] The plate is centriguged and read for Scintillation imaging on Leadseeker.

Structure (SMILES)	PLK4 pIC50 (PLK4 (h))	GSK3B pIC50 (GSK3β (h))
CN1CCCNc2ncnc3c2/C(=C/Nc2ccc(Cl)c(c2)OCCN2C[C@H](O)C[C@@H]2C1=O)C(=O)N3	<5 and 5.16	
CN1CCNc2ncnc3c2/C(=C/Nc2cccc(c2)OCCCN2C[C@H](O)C[C@@H]2C1=O)C(=O)N3	5.14 and 5.64	5.21, 5.24, 6.19

For part of its entries the source gives two or more results. They are shown here; other results are not. An entry can have further records. Results that share an entry differ for a reason that is not stated; dose, time, organism, isomer or construct need not be as stated for each record.
